Here are results for 66 sequences from PubChem BioAssay AID1347423 (Functional Genomics Laboratory (NCATS/FGL), 2020).

The campaign covered roughly 52,000 sequences. About 210 (0.4%) were called active.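 The calls were made as follows: active = gene whose silencing raises cell survival under the drug, median off-target-corrected z-score across its silencing RNAs 2 or more; inactive = the rest.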 Some of the results follow.

A short description of this experiment: Resistance to Poly (ADP-Ribose) Polymerase inhibitor: Gene Identification via Genome-wide siRNA Screen. To be noted: mouse BRCA2 R2336H ES cells, olaparib, CellTiter-Glo viability; stronger effect = higher value. The method in brief:
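Mouse BRCA2 R2336H ES cells were reverse-transfected with siRNA (20 nM final), treated at 48 h with 500 nM olaparib, and read by CellTiter-Glo after 72 h. Scores: MAD-based z per siRNA, median per gene, seed off-target correction.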
For CGAGAUGGGAGAUUGAAAUTT against Ms4a8a, the z-score was inactive: -0.41.
To GGUGAAGAAGGUGUUCCAUTT against Pvalb belongs inactive: -1.34.
As for “GGACCCUGACUCAUUGGCATT against 4933400K24Rik”, the z-score was inactive: -0.252.
Consider GCGGACAGUUUGGCACAAUTT against Becn1, for which the z-score was inactive: -0.17.
The same measure for CCUCUGUGCUCGUCUUUUUTT against Arhgap6: inactive: 0.215; for GGGCGACAUCUUUAGCAAATT against Sh3bp4: inactive: 0.942; for GGUCCUGACUGGAUACCUGTT against Ece1: inactive: -0.29.
The same measure for CCAUUCAUUUAACCUUUCATT against Thea: inactive: 0.691; for GCCAUGAAUCCUAUCCGCATT against Ephb3: inactive: -0.724.
On to “CGUGCUUAUUUUCAAGAAGTT against 1810019J16Rik”, for which the z-score is inactive: 0.743.
To CCAGGGACCCGUAAUUUAUTT against Fn3k belongs inactive: 1.16; to GCUGAUGGAGAGUUAUUUGTT against Rcbtb1, inactive: -0.811; to “GGCUGAGGAGAUAACCAUATT against 5330401P04Rik”, inactive: -0.083.
The same measure for GGCGAAUGGAAGAUAAUGCTT against Stxbp3: inactive: 2.61; for GGACUAAGUAUAGAAUUCATT against Gdnf: inactive: 0.681.
The same measure for CGAUGAUGAACGAUGGACATT against Mmp3: inactive: 0.175; for “GCAGUAUUUUGCUAUCAUATT against 4921511C16”: inactive: 0.0281; for GGAGUUUUUACUAUCAAAGTT against Gm527: inactive: 0.607.
As for “GGAGGAGCUGAAUGAAAACTT against 2810468K05Rik”, the z-score was inactive: -0.164.
Take “GCUAUAAGAGAGCUAGACATT against 2610040E16Rik”: the z-score was inactive: -0.737.
The same measure for “GGUUUUGUUGUGAGUGUUUTT against 1500010M16Rik”: inactive: 1.88; for GGUUGUUGGAAAAGAUGAATT against Ids: inactive: -0.257.
Take GCUGUGAAUUCCAAAUGCGTT against Myh4: the z-score is inactive: 0.483.
Consider GCUGGCUUCUAUACUUCCCTT against DXImx49e, for which the z-score is inactive: -0.505.
The same measure for GGAGAAGACACAGAGAACCTT against BC046386: inactive: 2.29; for CCUUCUUGACUAUUCGUCUTT against Olfr1509: inactive: -0.0964; for GGGAUUGAACCCUUGUUUUTT against BC049762: inactive: 1.18.
As for GGUGCUGAACAUCUAUGGGTT against Myo1d, the z-score is inactive: 2.28.
In the case of GCCAUAGAAGUAGAAGUAGTT against Rbmx2, the z-score was inactive: -0.672.
Take GCUCACUAAAUCCUUGAAATT against Trim31: the z-score was inactive: -0.603.
The same measure for GGCUAUUAAAGAUUUGAUGTT against Myef2: inactive: -0.33; for GGACCACAGAAGUUCUCAUTT against Pira2: inactive: 1.13.
The same measure for CGACAAGAAGACUUCGAAUTT against Mnt: inactive: 0.165; for CCUCAUGUAGCAUUUUUCUTT against Pex11b: inactive: 0.363.
Turning to “GGCUCUCAAUUUUAUUUCUTT against D15Ertd785e”, the z-score is inactive: -0.0911.
In the case of GCAAUAGGCAAUCUGGGAUTT against Olfr52, the z-score was inactive: 1.51.
The same measure for GGGAGCAUUUCCUUAUACUTT against Tpmt: inactive: 0.437.
For the sequence “CCCGCUUUCAGUCUUAACATT against 6330578E17Rik”, the z-score was inactive: 0.399.
The same measure for GGCCAACUUGCUGGUAUUGTT against AF322649: inactive: -0.0809; for GGAGCAGGUUGGCUAUUUGTT against Ppp6c: inactive: -0.738; for GGUCUCAAUAAACUUCAGGTT against Mfap4: inactive: 2.
Take GCAUCGUUGACUAAAGUGGTT against Grm3: the z-score is inactive: -0.445.
As for “CCUACAAGAACGAAGAUUUTT against 2610311B01Rik”, the z-score is inactive: 0.886.
The same measure for “GGAAAUGAAUGGAAAUAGUTT against D030070L09Rik”: inactive: 0.736; for CGCCACUAUCCUAACUUGCTT against Olfr963: inactive: 1.26.
In the case of CCAUAAUCUCUUUUCACUGTT against Fzd7, the z-score is inactive: 1.02.
Consider GGAUGAAAAGGGACAAAGATT against BC021790, for which the z-score was inactive: -1.68.
To “GCCUGUAGCAGAGAACUUUTT against 5330410G16Rik” belongs inactive: 0.312; to GCAAUGACAUCUUUUAGACTT against Gpr12, inactive: -0.704; to GGCUAGCCUUGAAUUUAUGTT against Trp53rk, inactive: -0.591.
Turning to CCUUGCUCUUUCCAGCUCUTT against Olfr704, the z-score was inactive: 1.36.
To “CAGAUGCAAGAAGAGAGAGTT against E130006D01Rik” belongs inactive: -0.73; to CCGGACUCUAGAGGACUUUTT against Lalba, inactive: 0.333; to GGCACAUGCCCUUUUCUACTT against Cog1, inactive: 0.266.
“GCUGUGCCCUAAAGACUGGTT against 4922502D21Rik”: the z-score was inactive: 0.642.
To GGAGAGCAAAUUAAGUUCATT against Rab6ip2 belongs inactive: 0.12.
Take GGUGUUUACACAGAGAAUGTT against Gpr143: the z-score is inactive: -0.0228.
To GGAUGAGUACAGCAUUCUGTT against Rhebl1 belongs inactive: -0.185; to GGAUCGAAUCUUUACCUAUTT against Col9a1, inactive: 1.52.
Consider GGCAGUAAAUAGUAAGAAATT against Ccr9, for which the z-score is inactive: -0.437.
To GGAGUUGGACCUGUCAGAGTT against Daxx belongs inactive: 0.456; to GGAAAACUGCUUUGAGCUGTT against Thap7, inactive: 0.641.
To GGAACCAGAGAAAGAAGAUTT against Nfkbie belongs inactive: -0.601; to GGGUUAGCAACUUCAAAUATT against Zmynd19, inactive: -0.526.
To GGAAGUCUACAAGUGGCCATT against Nr1d1 belongs inactive: 1.13; to GGAGCAUUAUAUCAAUCCUTT against Zfp111, inactive: 3.08.
